This is one part of the list. Small differences around the control level are noise.

The chains behind the UniProt entries cited, without tags or fusion partners. Where a name states a change or a piece, a line headed by the entry shows the natural chain unless it says otherwise.
UniProt Q9ESX4: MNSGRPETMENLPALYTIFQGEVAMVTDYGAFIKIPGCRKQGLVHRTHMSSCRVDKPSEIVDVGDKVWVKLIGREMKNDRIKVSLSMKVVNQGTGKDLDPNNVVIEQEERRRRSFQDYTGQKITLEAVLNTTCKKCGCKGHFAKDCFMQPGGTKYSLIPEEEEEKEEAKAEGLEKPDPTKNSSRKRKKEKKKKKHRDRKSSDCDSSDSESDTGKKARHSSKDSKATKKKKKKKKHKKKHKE
UniProt Q9JLQ0, whole entry: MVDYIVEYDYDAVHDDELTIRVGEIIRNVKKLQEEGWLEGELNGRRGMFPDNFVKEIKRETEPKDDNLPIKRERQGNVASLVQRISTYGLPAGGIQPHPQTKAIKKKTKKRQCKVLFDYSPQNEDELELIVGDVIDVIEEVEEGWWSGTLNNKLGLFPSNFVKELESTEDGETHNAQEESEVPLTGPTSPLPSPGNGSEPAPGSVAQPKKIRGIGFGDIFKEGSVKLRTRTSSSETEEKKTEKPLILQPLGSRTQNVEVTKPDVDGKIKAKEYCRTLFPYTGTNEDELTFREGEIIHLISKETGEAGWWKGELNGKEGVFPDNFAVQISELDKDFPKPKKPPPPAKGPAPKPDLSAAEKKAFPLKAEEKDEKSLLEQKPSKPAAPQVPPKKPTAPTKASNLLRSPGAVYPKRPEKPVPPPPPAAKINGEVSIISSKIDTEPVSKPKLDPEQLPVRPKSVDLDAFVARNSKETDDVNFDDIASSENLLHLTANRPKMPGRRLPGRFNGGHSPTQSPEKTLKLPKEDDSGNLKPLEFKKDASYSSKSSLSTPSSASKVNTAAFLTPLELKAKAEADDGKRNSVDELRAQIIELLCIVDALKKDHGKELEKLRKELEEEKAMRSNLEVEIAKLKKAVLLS
UniProt Q9JL26: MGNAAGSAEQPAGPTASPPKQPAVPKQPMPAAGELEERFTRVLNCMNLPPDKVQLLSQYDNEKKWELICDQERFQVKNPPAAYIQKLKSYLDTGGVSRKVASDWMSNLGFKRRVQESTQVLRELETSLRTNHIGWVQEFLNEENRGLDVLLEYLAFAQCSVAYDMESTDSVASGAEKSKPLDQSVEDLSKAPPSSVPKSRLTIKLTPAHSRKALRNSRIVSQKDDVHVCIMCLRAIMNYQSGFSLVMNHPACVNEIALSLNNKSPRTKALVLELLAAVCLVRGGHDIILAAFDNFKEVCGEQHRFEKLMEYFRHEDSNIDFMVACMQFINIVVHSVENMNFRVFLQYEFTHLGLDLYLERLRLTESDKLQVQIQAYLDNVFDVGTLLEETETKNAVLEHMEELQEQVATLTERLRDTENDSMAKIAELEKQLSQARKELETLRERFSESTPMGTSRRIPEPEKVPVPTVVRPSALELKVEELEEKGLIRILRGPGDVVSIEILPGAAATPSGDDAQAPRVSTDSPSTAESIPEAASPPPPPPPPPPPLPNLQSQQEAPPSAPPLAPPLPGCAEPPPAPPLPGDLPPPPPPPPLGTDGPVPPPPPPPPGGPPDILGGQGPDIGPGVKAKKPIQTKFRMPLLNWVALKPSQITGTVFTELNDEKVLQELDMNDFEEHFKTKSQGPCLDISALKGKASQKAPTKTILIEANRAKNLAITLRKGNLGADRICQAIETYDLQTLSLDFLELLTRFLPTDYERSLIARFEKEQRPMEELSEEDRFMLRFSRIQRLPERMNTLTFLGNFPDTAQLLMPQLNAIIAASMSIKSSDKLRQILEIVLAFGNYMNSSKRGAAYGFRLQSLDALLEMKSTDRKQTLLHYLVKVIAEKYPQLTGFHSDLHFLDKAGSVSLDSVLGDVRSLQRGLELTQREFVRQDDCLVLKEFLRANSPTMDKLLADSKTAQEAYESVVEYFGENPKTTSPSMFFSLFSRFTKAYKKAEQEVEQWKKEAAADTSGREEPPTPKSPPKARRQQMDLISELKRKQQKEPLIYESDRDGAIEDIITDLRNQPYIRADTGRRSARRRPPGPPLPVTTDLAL
UniProt Q9JMC8: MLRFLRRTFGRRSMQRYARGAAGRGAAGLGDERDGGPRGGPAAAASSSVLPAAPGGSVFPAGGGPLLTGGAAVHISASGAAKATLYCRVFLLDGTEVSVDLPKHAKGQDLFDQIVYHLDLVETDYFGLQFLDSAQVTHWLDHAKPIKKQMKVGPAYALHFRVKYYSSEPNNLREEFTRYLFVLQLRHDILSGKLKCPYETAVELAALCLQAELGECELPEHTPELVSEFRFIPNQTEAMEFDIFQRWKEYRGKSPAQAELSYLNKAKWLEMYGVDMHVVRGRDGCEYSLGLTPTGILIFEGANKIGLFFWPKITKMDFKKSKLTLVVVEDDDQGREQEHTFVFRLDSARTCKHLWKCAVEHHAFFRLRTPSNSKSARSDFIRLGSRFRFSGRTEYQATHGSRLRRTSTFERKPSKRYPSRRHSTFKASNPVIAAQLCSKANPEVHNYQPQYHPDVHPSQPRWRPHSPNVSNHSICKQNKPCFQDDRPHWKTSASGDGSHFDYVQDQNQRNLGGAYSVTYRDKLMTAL
UniProt Q9JKY5: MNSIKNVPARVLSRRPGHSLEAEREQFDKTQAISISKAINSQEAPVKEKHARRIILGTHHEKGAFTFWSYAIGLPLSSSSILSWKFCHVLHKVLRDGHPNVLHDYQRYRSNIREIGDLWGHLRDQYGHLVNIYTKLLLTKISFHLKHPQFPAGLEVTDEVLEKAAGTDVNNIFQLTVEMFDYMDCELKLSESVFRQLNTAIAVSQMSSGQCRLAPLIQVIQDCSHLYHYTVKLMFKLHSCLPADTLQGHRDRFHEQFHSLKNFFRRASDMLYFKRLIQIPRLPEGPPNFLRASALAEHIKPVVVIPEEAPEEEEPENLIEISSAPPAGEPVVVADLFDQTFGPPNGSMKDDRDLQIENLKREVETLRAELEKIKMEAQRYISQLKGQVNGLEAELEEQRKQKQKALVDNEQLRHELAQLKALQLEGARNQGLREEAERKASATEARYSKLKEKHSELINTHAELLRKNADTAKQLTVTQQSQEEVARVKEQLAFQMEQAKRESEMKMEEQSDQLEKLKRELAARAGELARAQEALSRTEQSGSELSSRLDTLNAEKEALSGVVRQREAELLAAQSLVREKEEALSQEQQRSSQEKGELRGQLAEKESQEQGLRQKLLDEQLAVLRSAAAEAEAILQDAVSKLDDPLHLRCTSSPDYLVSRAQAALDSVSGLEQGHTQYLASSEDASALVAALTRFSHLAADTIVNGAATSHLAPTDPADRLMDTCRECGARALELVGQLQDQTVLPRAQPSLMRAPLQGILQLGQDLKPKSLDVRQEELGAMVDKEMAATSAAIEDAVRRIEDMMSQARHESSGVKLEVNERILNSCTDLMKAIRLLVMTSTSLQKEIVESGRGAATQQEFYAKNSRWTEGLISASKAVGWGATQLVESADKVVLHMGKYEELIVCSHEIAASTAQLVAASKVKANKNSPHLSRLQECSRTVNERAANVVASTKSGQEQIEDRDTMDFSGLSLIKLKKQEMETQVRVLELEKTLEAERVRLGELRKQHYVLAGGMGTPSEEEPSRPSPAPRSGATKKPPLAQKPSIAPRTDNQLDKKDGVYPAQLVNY
UniProt Q9QUN3: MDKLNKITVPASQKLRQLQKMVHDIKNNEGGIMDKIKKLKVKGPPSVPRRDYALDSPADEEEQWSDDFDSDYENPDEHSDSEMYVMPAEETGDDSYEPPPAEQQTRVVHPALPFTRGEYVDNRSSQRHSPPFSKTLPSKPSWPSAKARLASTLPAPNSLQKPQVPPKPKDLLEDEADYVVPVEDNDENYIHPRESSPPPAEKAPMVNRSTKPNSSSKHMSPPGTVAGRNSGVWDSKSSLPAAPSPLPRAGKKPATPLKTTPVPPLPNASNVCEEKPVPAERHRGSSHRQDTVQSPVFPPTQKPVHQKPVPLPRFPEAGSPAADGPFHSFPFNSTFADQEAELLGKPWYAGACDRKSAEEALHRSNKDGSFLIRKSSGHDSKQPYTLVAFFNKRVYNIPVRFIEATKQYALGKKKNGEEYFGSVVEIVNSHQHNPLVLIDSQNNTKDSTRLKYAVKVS
UniProt Q9JJZ4: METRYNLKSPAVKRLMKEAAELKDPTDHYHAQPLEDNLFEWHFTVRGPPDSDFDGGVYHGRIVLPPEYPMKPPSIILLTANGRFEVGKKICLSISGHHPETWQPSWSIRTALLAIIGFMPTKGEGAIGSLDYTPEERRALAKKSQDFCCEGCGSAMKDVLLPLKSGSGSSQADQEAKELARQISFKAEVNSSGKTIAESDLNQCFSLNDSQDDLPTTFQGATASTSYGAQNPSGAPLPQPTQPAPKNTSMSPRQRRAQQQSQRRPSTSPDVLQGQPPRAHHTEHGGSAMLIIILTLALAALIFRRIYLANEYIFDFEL
UniProt Q9JHU9: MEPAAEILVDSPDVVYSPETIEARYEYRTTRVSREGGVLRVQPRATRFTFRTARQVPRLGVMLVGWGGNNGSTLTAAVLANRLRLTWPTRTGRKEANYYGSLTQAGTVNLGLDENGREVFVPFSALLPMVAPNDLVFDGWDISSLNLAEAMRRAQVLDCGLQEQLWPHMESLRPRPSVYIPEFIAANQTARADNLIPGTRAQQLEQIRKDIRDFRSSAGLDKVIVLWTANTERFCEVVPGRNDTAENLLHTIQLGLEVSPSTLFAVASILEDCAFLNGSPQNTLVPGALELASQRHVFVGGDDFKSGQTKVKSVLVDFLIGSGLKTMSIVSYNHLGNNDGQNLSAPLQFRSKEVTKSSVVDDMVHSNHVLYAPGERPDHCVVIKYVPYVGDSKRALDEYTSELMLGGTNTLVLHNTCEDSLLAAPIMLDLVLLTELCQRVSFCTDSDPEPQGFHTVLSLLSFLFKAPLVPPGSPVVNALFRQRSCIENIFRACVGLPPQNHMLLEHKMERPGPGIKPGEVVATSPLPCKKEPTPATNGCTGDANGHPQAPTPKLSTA
UniProt Q9ET30: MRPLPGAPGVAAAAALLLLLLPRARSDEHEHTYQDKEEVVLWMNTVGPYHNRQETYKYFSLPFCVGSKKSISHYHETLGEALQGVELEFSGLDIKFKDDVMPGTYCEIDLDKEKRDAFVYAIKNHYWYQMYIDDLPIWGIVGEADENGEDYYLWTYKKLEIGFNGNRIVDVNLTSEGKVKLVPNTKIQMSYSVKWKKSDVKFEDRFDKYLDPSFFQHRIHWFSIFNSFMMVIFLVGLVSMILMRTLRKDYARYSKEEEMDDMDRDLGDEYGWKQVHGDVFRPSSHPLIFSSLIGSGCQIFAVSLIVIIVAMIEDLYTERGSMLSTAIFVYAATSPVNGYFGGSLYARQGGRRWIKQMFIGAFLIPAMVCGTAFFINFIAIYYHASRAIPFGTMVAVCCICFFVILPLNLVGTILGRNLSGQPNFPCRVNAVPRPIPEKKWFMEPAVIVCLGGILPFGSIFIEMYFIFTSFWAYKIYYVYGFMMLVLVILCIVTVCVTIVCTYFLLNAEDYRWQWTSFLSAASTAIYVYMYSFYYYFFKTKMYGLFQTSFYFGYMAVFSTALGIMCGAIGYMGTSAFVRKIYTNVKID
UniProt Q9QX60: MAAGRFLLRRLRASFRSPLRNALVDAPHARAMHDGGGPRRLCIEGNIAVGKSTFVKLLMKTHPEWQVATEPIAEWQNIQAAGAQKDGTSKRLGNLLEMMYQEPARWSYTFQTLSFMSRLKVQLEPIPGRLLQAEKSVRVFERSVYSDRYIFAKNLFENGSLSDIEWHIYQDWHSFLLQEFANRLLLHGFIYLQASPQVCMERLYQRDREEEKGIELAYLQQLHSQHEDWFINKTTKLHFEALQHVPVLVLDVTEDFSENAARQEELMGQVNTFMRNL
UniProt Q9JI44, whole entry: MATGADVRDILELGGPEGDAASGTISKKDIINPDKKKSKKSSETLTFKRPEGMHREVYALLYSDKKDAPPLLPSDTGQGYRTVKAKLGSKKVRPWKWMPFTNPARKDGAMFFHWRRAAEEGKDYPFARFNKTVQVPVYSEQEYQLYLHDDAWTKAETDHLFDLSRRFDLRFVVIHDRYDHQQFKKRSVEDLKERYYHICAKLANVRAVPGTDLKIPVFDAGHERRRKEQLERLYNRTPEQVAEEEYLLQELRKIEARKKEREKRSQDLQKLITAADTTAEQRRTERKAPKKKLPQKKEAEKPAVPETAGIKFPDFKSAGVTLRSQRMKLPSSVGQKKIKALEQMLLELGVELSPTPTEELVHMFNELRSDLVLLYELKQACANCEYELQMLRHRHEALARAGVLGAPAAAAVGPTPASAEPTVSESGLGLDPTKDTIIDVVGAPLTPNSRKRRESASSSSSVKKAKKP
UniProt Q9QWW1: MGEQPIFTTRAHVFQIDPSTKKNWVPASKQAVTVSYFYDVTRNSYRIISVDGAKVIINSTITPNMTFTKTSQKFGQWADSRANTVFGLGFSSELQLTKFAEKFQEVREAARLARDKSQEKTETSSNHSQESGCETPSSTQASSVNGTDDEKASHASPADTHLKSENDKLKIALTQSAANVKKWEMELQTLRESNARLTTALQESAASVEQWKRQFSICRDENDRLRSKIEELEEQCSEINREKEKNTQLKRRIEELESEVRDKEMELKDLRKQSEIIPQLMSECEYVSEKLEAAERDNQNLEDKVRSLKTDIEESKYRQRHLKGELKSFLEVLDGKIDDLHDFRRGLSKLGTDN

Compound in the assay: CN[C@@H]1C[C@H]2O[C@@](C)([C@@H]1OC)n1c3ccccc3c3c4c(c5c6ccccc6n2c5c31)C(=O)NC4 [staurosporine]
Description: log2 fold change of tryptic peptide abundance, ligand vs vehicle (limited proteolysis) (log2 ratio); higher = more trypsin-susceptible (destabilized). The following applies: ligand concentration: 20 uM; sample: mouse liver crude lysate; replicate design: treated separately.
With “UniProt Q9ESB3 (peptide sequence: SPLVFGFCR, peptide start residue: 209)”, the log2 fold change was -0.207. As to “UniProt Q9JJA7 (peptide sequence: HSMEHVSMACVHLASK, peptide start residue: 116)”, the log2 fold change is -0.304.

As to “UniProt Q9ES46 (peptide sequence: ARPEDVVNLDLK, peptide start residue: 337)”, the log2 fold change was -0.431. As for “UniProt Q9JJY3 (peptide sequence: DGDSGSLGSPSASR, peptide start residue: 284)”, the log2 fold change was determined as 0.0771. The same measure for “UniProt Q9JKX6 (peptide sequence: TLHHECVILVK, peptide start residue: 70)”: -0.138; for “UniProt Q9QUK9 (peptide sequence: TLNNDIMLIK, peptide start residue: 103)”: 0.0565; for “UniProt Q9ESX4 (peptide sequence: RSFQDYTGQK, peptide start residue: 113)”: 0.322. “UniProt Q9JLQ0 (peptide sequence: ETGEAGWWKGELNGK, peptide start residue: 302)”: the log2 fold change was determined as 0.256. Consider “UniProt Q9JJF9 (peptide sequence: SVEDAEDRETR, peptide start residue: 203)”, for which the log2 fold change came out at 0.351. In the case of “UniProt Q9JL26 (peptide sequence: VEELEEK, peptide start residue: 479)”, the log2 fold change is 0.286.

On to “UniProt Q9JMC8 (peptide sequence: WRPHSPNVSNHSICK, peptide start residue: 462)”, for which the log2 fold change was -0.193. Regarding “UniProt Q9JKY5 (peptide sequence: DRFHEQFHSLK, peptide start residue: 251)”, the log2 fold change stood at 0.491.

For “UniProt Q9QUN3 (peptide sequence: VVHPALPFTR, peptide start residue: 107)”, the log2 fold change stood at 0.37. With “UniProt Q9JMG7 (peptide sequence: SSSEGGDAGNDTR, peptide start residue: 177)”, the log2 fold change was -0.261. The same measure for “UniProt Q9JKS5 (peptide sequence: EYRPYETER, peptide start residue: 149)”: 0.156; for “UniProt Q9JJZ4 (peptide sequence: SGSGSSQADQEAK, peptide start residue: 165)”: -0.641. The same measure for “UniProt Q9JLC8 (peptide sequence: RTFSTSASR, peptide start residue: 4381)”: 0.141.

Turning to “UniProt Q9JHI9 (peptide sequence: DTEPKPLEGTHLMGEKDSNIR, peptide start residue: 254)”, the log2 fold change is -0.155. On to “UniProt Q9JJK2 (peptide sequence: SLDYVKR, peptide start residue: 129)”, for which the log2 fold change came to 0.293. With “UniProt Q9JID9 (peptide sequence: SHGLFVIR, peptide start residue: 430)”, the log2 fold change is 0.561.

For “UniProt Q9JHU9 (peptide sequence: HVFVGGDDFK, peptide start residue: 296)”, the log2 fold change was -0.387.

As to “UniProt Q9ET30 (peptide sequence: YSKEEEMDDMDR, peptide start residue: 253)”, the log2 fold change is -0.0457.

Regarding “UniProt Q9JM93 (peptide sequence: KVVDPETGR, peptide start residue: 178)”, the log2 fold change is -0.183.

For “UniProt Q9QX60 (peptide sequence: VQLEPIPGR, peptide start residue: 121)”, the log2 fold change was -0.561. The same measure for “UniProt Q9JHE7 (peptide sequence: DGNPGGPGSER, peptide start residue: 303)”: -0.244; for “UniProt Q9JJ80 (peptide sequence: GGNANATVTQVLR, peptide start residue: 38)”: 0.731; for “UniProt Q9JI44 (peptide sequence: DILELGGPEGDAASGTISKK, peptide start residue: 9)”: -0.145. The same measure for “UniProt Q9JLV1 (peptide sequence: GYIPIPVIHEQNITR, peptide start residue: 210)”: -0.298; for “UniProt Q9JKK7 (peptide sequence: VAAAITK, peptide start residue: 330)”: -0.142.

For the target “UniProt Q9JHG6 (peptide sequence: AKFESLFR, peptide start residue: 83)”, the log2 fold change is -0.0976. The same measure for “UniProt Q9QWW1 (peptide sequence: IDDLHDFR, peptide start residue: 337)”: 0.69.
